Test results: the supplement of paper PMC12823440, “Inhibitors supercharge kinase turnover through native proteolytic circuits” (Nature, 2025)
The list shows a part of the results. The calls rarely recur for the same compound in another form.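 Kinases, fused to nanoluciferase, were expressed in K562 cells; luminescence was measured every 4 h from 2 to 18 h as percent of control (DMSO = 100%, positive control = 0%). A time point is decreased if signal falls significantly (2 sigma). Hits were called by the authors by a rule that is not shown; the count of time points alone does not decide it.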

By UniProt entry, the sequences of proteins in these tests, tags left out. Where a name states a change or a piece, a line headed by the entry shows the natural chain unless it says otherwise.
UniProt P21860, whole entry: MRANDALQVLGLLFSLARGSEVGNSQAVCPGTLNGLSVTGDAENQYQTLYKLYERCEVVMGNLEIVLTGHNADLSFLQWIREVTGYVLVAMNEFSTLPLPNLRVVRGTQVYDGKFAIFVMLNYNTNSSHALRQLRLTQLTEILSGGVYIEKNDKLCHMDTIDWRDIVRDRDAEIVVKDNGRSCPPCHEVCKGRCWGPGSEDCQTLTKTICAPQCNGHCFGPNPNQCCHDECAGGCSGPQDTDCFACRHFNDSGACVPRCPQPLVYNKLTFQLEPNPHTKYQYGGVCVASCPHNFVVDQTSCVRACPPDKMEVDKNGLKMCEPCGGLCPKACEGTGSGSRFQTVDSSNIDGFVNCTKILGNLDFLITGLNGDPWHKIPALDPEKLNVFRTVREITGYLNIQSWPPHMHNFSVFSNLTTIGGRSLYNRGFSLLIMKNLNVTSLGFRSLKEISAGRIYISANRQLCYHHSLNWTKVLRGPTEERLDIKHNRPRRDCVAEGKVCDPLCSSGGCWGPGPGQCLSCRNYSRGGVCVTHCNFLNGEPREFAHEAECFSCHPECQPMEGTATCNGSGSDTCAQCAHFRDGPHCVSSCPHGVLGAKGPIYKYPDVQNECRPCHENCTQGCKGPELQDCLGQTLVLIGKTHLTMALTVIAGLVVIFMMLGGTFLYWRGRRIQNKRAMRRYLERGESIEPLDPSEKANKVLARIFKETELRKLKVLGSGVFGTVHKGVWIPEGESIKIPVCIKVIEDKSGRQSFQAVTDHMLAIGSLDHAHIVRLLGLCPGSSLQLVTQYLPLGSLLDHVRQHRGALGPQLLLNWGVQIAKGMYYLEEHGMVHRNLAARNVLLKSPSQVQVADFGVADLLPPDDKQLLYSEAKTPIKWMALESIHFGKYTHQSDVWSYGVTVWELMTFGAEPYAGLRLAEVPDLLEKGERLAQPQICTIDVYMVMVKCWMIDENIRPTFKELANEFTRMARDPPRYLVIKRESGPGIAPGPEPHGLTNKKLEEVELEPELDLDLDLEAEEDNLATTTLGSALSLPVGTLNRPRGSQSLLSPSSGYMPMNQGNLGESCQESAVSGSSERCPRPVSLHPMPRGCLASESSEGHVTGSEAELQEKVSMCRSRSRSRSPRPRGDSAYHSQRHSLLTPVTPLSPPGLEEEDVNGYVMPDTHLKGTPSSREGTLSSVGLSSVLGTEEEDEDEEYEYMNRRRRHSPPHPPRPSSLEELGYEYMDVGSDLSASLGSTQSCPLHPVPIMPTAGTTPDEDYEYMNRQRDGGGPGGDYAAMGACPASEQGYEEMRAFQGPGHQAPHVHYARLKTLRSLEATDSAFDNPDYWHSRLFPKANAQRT
UniProt Q15303, whole entry R711C: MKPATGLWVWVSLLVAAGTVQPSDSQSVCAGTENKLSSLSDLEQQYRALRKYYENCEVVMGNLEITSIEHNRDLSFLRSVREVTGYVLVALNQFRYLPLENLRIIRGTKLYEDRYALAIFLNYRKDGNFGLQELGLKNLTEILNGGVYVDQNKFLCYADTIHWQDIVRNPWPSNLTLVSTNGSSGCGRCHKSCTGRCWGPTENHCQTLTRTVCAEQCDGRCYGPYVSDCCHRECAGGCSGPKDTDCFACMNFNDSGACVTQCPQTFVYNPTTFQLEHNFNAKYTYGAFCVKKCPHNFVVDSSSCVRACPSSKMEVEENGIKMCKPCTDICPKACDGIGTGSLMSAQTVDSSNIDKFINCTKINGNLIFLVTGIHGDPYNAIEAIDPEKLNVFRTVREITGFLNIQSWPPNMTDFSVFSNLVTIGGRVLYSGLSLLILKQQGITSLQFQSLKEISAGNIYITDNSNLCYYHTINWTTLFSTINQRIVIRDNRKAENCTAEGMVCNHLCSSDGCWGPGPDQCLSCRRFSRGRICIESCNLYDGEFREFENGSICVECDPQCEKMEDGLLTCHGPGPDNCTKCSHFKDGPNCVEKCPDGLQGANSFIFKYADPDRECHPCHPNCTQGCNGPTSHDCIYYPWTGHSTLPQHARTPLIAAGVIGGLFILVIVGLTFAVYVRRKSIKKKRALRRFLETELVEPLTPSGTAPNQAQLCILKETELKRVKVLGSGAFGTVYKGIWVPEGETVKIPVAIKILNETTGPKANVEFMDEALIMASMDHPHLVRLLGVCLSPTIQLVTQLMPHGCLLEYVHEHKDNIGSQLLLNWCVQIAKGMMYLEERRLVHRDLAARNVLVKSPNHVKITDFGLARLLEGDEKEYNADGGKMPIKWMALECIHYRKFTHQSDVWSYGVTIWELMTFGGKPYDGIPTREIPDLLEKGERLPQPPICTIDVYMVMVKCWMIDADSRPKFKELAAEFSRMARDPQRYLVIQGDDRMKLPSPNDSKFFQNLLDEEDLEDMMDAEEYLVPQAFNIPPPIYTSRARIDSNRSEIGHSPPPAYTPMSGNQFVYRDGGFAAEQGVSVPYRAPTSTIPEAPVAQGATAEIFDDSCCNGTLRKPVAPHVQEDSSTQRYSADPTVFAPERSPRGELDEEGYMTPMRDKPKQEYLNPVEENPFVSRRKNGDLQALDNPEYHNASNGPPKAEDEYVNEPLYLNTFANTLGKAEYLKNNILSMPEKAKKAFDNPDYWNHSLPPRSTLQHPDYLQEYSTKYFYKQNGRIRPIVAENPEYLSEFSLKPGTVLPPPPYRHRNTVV
UniProt O75460: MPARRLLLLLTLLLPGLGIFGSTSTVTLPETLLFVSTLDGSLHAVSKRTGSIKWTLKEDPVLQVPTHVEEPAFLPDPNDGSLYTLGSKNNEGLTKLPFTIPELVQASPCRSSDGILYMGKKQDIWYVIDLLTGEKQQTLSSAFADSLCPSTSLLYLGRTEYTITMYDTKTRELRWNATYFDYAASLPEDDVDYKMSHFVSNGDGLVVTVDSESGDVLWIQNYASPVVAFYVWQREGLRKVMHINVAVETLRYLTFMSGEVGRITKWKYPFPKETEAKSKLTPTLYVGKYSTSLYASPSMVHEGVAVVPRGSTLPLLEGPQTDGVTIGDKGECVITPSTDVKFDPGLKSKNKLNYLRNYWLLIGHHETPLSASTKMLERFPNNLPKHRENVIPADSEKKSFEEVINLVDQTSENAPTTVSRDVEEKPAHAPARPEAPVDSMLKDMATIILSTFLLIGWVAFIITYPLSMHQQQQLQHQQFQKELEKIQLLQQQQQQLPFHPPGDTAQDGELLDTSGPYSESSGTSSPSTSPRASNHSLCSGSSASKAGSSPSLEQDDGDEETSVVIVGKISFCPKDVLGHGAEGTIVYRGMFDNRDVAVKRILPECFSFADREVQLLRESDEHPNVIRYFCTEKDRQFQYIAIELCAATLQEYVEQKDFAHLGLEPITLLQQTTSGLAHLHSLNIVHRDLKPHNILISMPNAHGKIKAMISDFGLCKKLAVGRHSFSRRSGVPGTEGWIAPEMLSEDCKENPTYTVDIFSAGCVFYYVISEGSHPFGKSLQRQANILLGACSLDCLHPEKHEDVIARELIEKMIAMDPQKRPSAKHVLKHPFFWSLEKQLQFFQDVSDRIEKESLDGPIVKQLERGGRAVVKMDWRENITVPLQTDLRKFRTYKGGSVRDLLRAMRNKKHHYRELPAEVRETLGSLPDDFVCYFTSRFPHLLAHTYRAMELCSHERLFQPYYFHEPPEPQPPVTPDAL
UniProt P11362, whole entry, looked up: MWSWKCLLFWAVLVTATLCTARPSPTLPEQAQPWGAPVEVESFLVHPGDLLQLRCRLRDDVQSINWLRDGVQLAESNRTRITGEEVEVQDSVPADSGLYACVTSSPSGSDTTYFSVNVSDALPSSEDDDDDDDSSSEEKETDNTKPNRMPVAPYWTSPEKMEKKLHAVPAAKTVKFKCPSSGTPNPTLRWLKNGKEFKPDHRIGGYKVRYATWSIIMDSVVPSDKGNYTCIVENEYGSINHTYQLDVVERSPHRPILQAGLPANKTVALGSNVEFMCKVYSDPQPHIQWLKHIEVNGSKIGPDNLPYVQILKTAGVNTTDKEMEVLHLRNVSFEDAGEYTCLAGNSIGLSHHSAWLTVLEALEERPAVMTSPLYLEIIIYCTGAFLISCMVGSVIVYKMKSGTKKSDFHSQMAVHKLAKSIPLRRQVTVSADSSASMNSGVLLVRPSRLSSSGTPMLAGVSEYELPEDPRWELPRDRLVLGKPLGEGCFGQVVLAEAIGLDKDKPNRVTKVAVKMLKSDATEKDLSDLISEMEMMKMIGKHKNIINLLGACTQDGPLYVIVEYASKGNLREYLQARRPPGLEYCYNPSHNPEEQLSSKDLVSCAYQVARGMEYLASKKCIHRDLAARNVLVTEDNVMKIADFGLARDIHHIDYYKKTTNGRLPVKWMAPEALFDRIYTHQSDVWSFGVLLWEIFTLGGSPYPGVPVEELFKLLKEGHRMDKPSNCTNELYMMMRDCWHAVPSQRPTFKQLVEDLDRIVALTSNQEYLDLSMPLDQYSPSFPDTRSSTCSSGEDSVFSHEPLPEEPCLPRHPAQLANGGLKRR
UniProt P06241, whole entry, looked up: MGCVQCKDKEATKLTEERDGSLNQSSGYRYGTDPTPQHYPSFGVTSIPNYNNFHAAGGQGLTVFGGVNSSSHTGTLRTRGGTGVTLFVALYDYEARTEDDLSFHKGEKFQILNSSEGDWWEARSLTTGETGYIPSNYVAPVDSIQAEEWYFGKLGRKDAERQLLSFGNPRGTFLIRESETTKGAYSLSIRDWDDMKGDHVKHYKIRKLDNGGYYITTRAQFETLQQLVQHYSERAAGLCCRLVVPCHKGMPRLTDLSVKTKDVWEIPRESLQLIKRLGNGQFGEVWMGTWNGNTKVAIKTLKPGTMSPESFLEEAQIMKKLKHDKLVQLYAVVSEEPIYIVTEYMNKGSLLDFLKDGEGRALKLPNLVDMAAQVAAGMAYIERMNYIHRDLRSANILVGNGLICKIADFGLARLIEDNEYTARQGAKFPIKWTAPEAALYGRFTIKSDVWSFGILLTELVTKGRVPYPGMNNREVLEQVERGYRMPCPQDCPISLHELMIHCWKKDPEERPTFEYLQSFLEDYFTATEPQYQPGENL
UniProt P53667: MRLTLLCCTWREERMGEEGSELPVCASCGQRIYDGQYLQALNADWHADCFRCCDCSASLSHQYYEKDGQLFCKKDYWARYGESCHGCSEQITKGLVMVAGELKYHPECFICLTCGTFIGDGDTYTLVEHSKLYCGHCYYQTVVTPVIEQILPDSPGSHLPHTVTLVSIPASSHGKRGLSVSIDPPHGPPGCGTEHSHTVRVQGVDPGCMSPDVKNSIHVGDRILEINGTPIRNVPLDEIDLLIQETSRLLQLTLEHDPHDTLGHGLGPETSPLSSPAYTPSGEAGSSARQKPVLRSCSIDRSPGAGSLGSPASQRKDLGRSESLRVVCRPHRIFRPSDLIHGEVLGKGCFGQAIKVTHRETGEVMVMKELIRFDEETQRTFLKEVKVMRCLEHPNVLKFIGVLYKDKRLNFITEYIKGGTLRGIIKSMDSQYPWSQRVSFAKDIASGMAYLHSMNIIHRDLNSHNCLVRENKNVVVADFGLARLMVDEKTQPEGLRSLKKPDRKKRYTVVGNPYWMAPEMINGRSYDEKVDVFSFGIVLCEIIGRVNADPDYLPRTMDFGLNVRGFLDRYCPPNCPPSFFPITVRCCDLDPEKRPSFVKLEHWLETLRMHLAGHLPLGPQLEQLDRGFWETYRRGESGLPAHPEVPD
UniProt P53671: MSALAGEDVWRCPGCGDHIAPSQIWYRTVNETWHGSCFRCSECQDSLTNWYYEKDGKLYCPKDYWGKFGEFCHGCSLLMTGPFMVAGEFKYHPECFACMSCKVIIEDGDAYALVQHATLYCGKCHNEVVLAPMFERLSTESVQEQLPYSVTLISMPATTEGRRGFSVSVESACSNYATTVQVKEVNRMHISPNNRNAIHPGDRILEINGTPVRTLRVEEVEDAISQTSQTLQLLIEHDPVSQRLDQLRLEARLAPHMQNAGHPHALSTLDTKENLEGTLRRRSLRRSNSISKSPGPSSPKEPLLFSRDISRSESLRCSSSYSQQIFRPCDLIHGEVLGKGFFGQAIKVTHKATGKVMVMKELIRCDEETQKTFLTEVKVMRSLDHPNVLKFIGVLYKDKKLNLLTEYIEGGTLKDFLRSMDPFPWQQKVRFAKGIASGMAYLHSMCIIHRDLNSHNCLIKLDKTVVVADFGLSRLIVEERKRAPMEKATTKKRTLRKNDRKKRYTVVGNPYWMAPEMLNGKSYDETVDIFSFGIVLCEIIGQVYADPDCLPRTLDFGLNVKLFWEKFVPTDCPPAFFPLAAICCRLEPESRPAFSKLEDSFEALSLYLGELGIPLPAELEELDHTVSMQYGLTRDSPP

Assays:
Test in all cases: number of time points (of 5) at which kinase-Nluc abundance scored as decreased, DMSO-normalised (count); higher = more persistent destabilization
Settings in all cases: K562; 2-18 h
[1] = target: EGFR_L861Q (UniProt P00533)
[2] = target: EGFR_T790M (UniProt P00533)
[3] = target: EPHA2 (UniProt P29317)
[4] = target: ERBB3 (UniProt P21860)
[5] = target: ERBB4_R711C (clone: ERBB4_mut) (UniProt Q15303)
[6] = target: ERN1 (UniProt O75460)
[7] = target: FGFR1 (UniProt P11362)
[8] = target: FGFR2 (UniProt P21802)
[9] = target: FGFR3 (UniProt P22607)
[10] = target: FGR (UniProt P09769)
[11] = target: FLT3 (UniProt P36888)
[12] = target: FYN (UniProt P06241)
[13] = target: GSK3A (UniProt P49840)
[14] = target: HER2 (UniProt P04626)
[15] = target: INSRR (UniProt P14616)
[16] = target: IRAK3 (UniProt Q9Y616)
[17] = target: JAK1 (UniProt P23458)
[18] = target: LCK (UniProt P06239)
[19] = target: LIMK1 (UniProt P53667)
[20] = target: LIMK2 (UniProt P53671)

Measured: number of time points

C=CC(=O)N1CCC[C@@H](n2nc(-c3ccc(Oc4ccccc4)cc3)c(C(N)=O)c2N)C1 [Btk inhibitor 2] (10 µM)
0: all assays above

CC(=O)N1CCN(c2ccc(OCC3COC(Cn4ccnc4)(c4ccc(Cl)cc4Cl)O3)cc2)CC1 (stereo not drawn) [Ketoconazole] (2.5 µM)
0: all assays above

Cn1c(=O)n(-c2ccc(C(C)(C)C#N)cc2)c2c3cc(-c4cnc5ccccc5c4)ccc3ncc21 [Dactolisib (Tosylate)] (10 µM)
3: [4] | [8] | [9] | [15] | [16]
4: [5] | [11] | [12] | [17] | [19] | [20]
0: all other assays above

COc1cc(Oc2ccnc3cc(OC)c(OC)cc23)ccc1NC(=O)NC(C)c1nccs1 (stereo not drawn) (2.5 µM)
1: [20]
0: all other assays above

Cc1ccc(F)c(NC(=O)Nc2ccc(-c3cccc4[nH]nc(N)c34)cc2)c1 [Linifanib] (2.5 µM)
5: [7]
2: [3]
0: all other assays above

O=C(Nc1ccc(-c2ccnc(Nc3ccc(N4CCOCC4)cc3)n2)cc1)C1CCCN1 (stereo not drawn) (10 µM)
0: all assays above

Cc1c(NC(=O)c2cc3c(s2)CCCC3)cccc1-c1cn(C)c(=O)c(Nc2ccc([C@@H]3C(=O)N(C)CCN3C)cc2)n1 (10 µM)
0: all assays above

CCN(CCCOc1ccc2c(Nc3cc(CC(=O)Nc4cccc(F)c4)[nH]n3)ncnc2c1)CCOP(=O)(O)O [Barasertib] (10 µM)
1: [5]
3: [12]
2: [19]
0: all other assays above

CNC(=O)c1cccc2cc(Oc3ccnc4cc(OCC5(N)CC5)c(OC)cc34)ccc12 [Lucitanib] (10 µM)
0: all assays above

O=C(Nc1cc(C(F)(F)F)ccc1N1CCN(Cc2ccccn2)CC1)c1ccc(-c2ccncc2)o1 (10 µM)
5: [14]
0: all other assays above

CC(C)C(=O)Nc1ncc(-c2cc(C(F)F)nn2-c2c(Cl)cccc2Cl)s1 (10 µM)
5: [14]
not listed: [19] | [20]
0: all other assays above

COc1cc(C(=O)NC2CCN(C)CC2)ccc1Nc1ncc2c(n1)N(C1CCCC1)CC(F)(F)C(=O)N2C (10 µM)
0: all assays above

COc1cc2ncnc(Nc3ccc(O)cc3)c2cc1OC (10 µM)
0: all assays above

COc1c(Cl)cc2c([nH]c3cnccc32)c1NC(=O)c1cccnc1C (10 µM)
0: all assays above

CC(C)Oc1cc(Nc2nc(N[C@@H](C)c3ccc(F)cn3)ncc2Cl)n[nH]1 (10 µM)
0: all assays above

C[C@H](CN(C)C)Oc1nc(Nc2cc3cccc(Cl)c3cn2)cnc1C#N (10 µM)
0: all assays above

COc1cc2ncn(-c3cc(OCc4ccccc4C(F)(F)F)c(C(N)=O)s3)c2cc1OC (10 µM)
1: [1] | [3]
0: all other assays above

Nc1nc(OCC2CCCCC2)c2[nH]cnc2n1 (10 µM)
0: all assays above

CC#CC(=O)N[C@H]1CCCN(c2c(F)cc(C(N)=O)c3[nH]c(C)c(C)c23)C1 [Branebrutinib] (10 µM)
0: all assays above

COCCOc1cc2nccc(Nc3n[nH]c(C)c3C)c2cc1S(=O)(=O)C(C)(C)C [RIP2 kinase inhibitor 2] (2.5 µM)
0: all assays above

NS(=O)(=O)c1ccc(Nc2nc(OCC3CCCCC3)c3[nH]cnc3n2)cc1 (10 µM)
0: all assays above

CCN1CCN(Cc2ccc(C(=O)Nc3ccc(C)c(Oc4ccc5c(c4)CC(=O)N5)c3)cc2C(F)(F)F)CC1 (2.5 µM)
1: [2] | [11] | [16] | [17] | [20]
0: [9] | [10] | [13] | [14] | [18]
3: [4] | [5] | [8] | [15]
2: all other assays above
